Measured values taken from publication PMC5382582.
Results are given in words; binding and its absence hold for the method and conditions named. In cells and extracts the contact can be indirect. Some entries that bind do so weakly or less than the wild type.

Chains of the proteins cited; added tags and fusions are not shown. Residues count along the entry.
UniProt O14957: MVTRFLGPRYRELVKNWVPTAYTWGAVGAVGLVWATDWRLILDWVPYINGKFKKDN
UniProt P10176, residues 26-69: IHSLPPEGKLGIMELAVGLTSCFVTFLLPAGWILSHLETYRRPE

Target: CIIIk-Clover (UniProt O14957)
Assay: FRET or BRET; FLIM-FRET in live cells transiently transfected with the donor alone (CIIIk-Clover) or with donor and acceptor (CoxVIIIa-mRuby2); Clover lifetime from bi-exponential fits of TCSPC decays; 37 °C, 5% CO2

binding: binds
Substance: CoxVIIIa-mRuby2 (from UniProt P10176 26-69)
